Results taken from PubChem BioAssay AID504594 (Broad Institute, 2011).
In all, about 2,000 compounds went through this assay and fewer than 10 were called active.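 How the source made its calls: active means growth inhibition of at least 75% in every replicate, which also brings the mean inhibition to 75% or more; inconclusive means mean inhibition 75% or more but some replicate under 75%; inactive means the rest.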 This is one part of the list.

assay: growth inhibition of PfHsp90-dependent yeast, primary screen, antimalarial PfHsp90 inhibitor project, S. cerevisiae, BacTiter-Glo luminescence (AID 504594);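 further: 0% = DMSO neutral control wells and 100% = 20 µM radicicol control wells; higher value means stronger growth inhibition because the sign is flipped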; details: S. cerevisiae expressing PfHsp90, BacTiter-Glo growth, 48 h; at 9.4 µM; active compounds read high

Growth inhibition, inactive:
CCOc1ccccc1OCCOc1ccc(F)cc1 -4.49%
O=C1C(Cc2c[nH]c3ccccc23)NC(=S)N1Cc1ccccc1 (stereo unspecified) -3.78%
O=C1ON=C(c2ccc(Cl)cc2)/C1=C/c1ccc(O)cc1 -12.5%
Cc1ccc(Cl)c(Nc2ccccc2C(=O)O)c1Cl -7.61%
CC(C(=O)O)c1ccc(N2Cc3ccccc3C2=O)cc1 (stereo unspecified) -3.41%
CCn1nc(C(=O)O)c(=O)c2cc3c(cc21)OCO3 4.33%
COc1cccc(=O)c2c(C)n(CC(=O)c3ccccc3)c(C)c12 0.258%
Fc1ccc(-n2cc(CNCCc3ccccn3)c(-c3ccccc3Cl)n2)cc1 9.13%
CC(=O)Nc1ccc(S(=O)(=O)c2ccc(N)cc2)cc1 6.28%
CCCN1CCC(NC(=O)Nc2ccc(Br)cc2)CC1 -1.16%
CCS(=O)(=O)Nc1cc(OC)c(OC)cc1Cc1nccc2cc(OC)c(OC)cc12 1.03%
CN(C)c1ccc(CNCCC(Cc2ccccc2)c2ccco2)cc1 (stereo unspecified) -10.9%
COc1cc(C2CC(=O)NC3=C2C(=O)CC(C)(C)C3)ccc1O (stereo unspecified) -7.05%
N#C/C(=C/c1ccccc1)C(=O)NCc1ccccc1 -5.1%
O=C(CCC1CCCN(C(=O)c2ccsc2)C1)NCc1ccc(F)c(F)c1 (stereo unspecified) -8.05%
Cc1cccc(C(=O)c2cccc(C)c2)c1 0.336%
O=C(O)CCCc1ccccc1 9.2%
Cc1cnc(NC(=O)C2=C(O)c3ccccc3S(=O)(=O)N2C)s1 -6.36%
COc1ccc(/C=C\c2nc(=O)c3ccccc3o2)cc1 6.65%
CC1(C)O[C@@H]2C[C@H]3[C@@H]4CCC5=CC(=O)C=C[C@]5(C)[C@@]4(F)[C@@H](O)C[C@]3(C)[C@]2(C(=O)CO)O1 4.76%
CCCOc1ccc(-c2cc(C(=O)NCC3CCCO3)c3ccccc3n2)cc1 (stereo unspecified) 18%
O=C(NCCc1c[nH]c2ccccc12)c1cccnc1 7.04%
CC(=O)OCC(OC(C)=O)C(OC(C)=O)C(OC(C)=O)C(=O)Nc1cccc(C)c1 (stereo unspecified) -0.0548%
CC1CC(OC(=O)C(O)c2ccccc2)CC(C)(C)N1C (stereo unspecified) 6.86%
Cc1nnc(NS(=O)(=O)c2ccc(N)cc2)s1 0.395%
CCN1CCN(c2cc3c(cc2F)c(=O)c(C(=O)O)cn3C2CC2)CC1 -0.915%
CC(C)N1C(=O)/C(=C\c2nc3ccccc3c(=O)[nH]2)c2ccccc21 40.8%
O=C(Cc1ccccc1)NCC(=O)OCC(=O)c1ccccc1Cl -1.41%
Cc1cnc(C(=O)N2CCCC(C(=O)c3ccc(Cl)cc3C)C2)cn1 (stereo unspecified) 0.89%
CCOc1ccc(C(=O)Nc2ccc(N3CCN(C(C)=O)CC3)cc2)cc1[N+](=O)[O-] 1.08%
Cn1c(Oc2ccc3c(c2)OCO3)nc2c1c(=O)n(Cc1ccccc1)c(=O)n2C 5.1%
Fc1cccc(Cc2noc(CN3CCN(c4cnccn4)CC3)n2)c1 -2%
COc1ccc2c(=O)c(-c3cnn(-c4ccccc4)c3)c(C)oc2c1 5.41%
CC(C)(C)NC[C@H](O)COc1nsnc1N1CCOCC1 -4.62%
C[C@]12CCC(=O)C=C1CC[C@@H]1[C@@H]2[C@@H](O)C[C@@]2(C)[C@H]1CC[C@]2(O)C(=O)COC(=O)CCC(=O)O 3.79%
COc1ccc(CC(=O)NCC2(c3ccc(OC)c(OC)c3)CCOCC2)cc1 0.87%
O=C(O)[C@H](Cc1ccccc1)NC(=O)N1CCC(Cc2ccccc2)CC1 -1.3%
COc1cc(COc2ccc3c(C)c(Cc4ccccc4)c(=O)oc3c2)cc(OC)c1OC 3.7%
CC(C)(C)N(Cc1ccccc1)C(=O)c1ccc(Br)o1 15.4%
CC(COc1ccccc1)N(CCCl)Cc1ccccc1 (stereo unspecified) -3.68%
CCOC(=O)C(Cc1cc(C(C)=O)ccc1OC(C)C)C(=O)OCC 8.38%
COc1ccc(CN(CCN(C)C)c2ccccn2)cc1 1%
CCCNC(C)C(=O)Nc1ccccc1C (stereo unspecified) 6.27%
CCCCC[C@H](O)/C=C/[C@@H]1[C@@H](C/C=C\CCCC(=O)O)[C@@H](O)C[C@H]1O -8.27%
CN(CCO)CC(O)Cn1cnc2c1c(=O)n(C)c(=O)n2C (stereo unspecified) (tested in a mixture with another compound) -7.75%
Cc1nc(C(=O)Nc2ccccc2Cl)cc2c1[nH]c1ccccc12 6.77%
COc1ccc2c(c1OC)C(=O)NC(C)=C(C(=O)OC(C)(C)C)C2O (stereo unspecified) -1.33%
O=C1NC2(Nc3ccccc31)C(=O)Nc1ccc(Br)cc12 (stereo unspecified) 6.7%
COc1ccc(CNC(=O)c2c(O)c3cccc4c3n(c2=O)CCC4)cc1 8.31%
CC(=O)NC(Cc1ccccc1)C(=O)OCC(=O)c1ccccc1 (stereo unspecified) 0.5%
Cc1ccc2occ(C(=O)c3ccco3)c(=O)c2c1 0.389%
O=C(NC(CO)Cc1ccc([N+](=O)[O-])cc1)C(Cl)Cl (stereo unspecified) -5.86%
COc1ccc(C(=O)/C=C/c2ccc(OC(=O)c3cc(OC)c(OC)c(OC)c3)cc2)cc1 3.44%
COc1cccc(C2CC(=O)C3=C(C2)Nc2ccccc2N(C(=O)CCC(=O)O)C3c2ccc(F)cc2)c1 (stereo unspecified) 3.39%
CC(=O)NC(NC(=S)N1CCCCCC1)C(Cl)(Cl)Cl (stereo unspecified) -2.52%
COc1ccc(-c2nc(C)c(C(C)=O)n2O)cc1OC -1.05%
COc1ccc(N2C(=O)C3CCCN3C2=O)cc1 (stereo unspecified) -8.92%
COc1cc(=O)n(C)c2ccccc12 -35%
Cc1cc(C(=O)Nc2ccccc2C(=O)N2CCCCC2)ccc1[N+](=O)[O-] 2.1%
CN(Cc1ccccc1)CC(O)COc1ccc(CNCc2cccnc2)cc1 (stereo unspecified) 7.57%
COc1ccc2[nH]c3c(c2c1)CCNC3C1CC=C(C)CC1 (stereo unspecified) 4.09%
CCOC(=O)C1(CCCc2ccccc2)CCN(C2CCN(C(C)=O)CC2)CC1 4.53%
NC(=O)[C@@H]1[C@@H]2C(=O)N(c3ccc(F)cc3)C(=O)[C@@H]2[C@H]2C=Cc3ccccc3N21 2.84%
CN(C)CCN(Cc1cccs1)c1ccccn1 3.92%
CCNC(=O)C12CCC(C)(C(=O)O1)C2(C)C (stereo unspecified) -1.1%
COc1cc2c(cc1OC)C(c1cc3ccccc3oc1=O)=NC(C)(C)C2 -7.93%
COc1ccc2oc(-c3ccco3)cc(=O)c2c1 2.21%
CCOc1cc2oc(=O)c3c(c2cc1Cl)CCC3 6.37%
NC(=O)N1c2ccccc2C=Cc2ccccc21 -2.22%
COc1cc(C2NCCc3c2[nH]c2ccccc32)ccc1OC(C)C (stereo unspecified) -1.68%
O=C(/C=C/c1ccc(F)cc1)NC(=S)N1CCCCC1c1cccnc1 (stereo unspecified) 4.68%
O=C(c1ccc(-c2ccccc2)c(F)c1)C1CCCN(C(=O)c2cncs2)C1 (stereo unspecified) 20.8%
COc1ccc(C(=O)COc2ccc(F)cc2)c(O)c1 -16.2%
COc1ccc2c(c1OC)C(=O)N1C2SC[C@H]1C(=O)NC1CC(C)(C)NC(C)(C)C1 (stereo partly specified) 2.59%
O=C(NC1CCCCC1)c1cc2nc(-c3ccco3)cc(C(F)(F)F)n2n1 -11%
Cc1c(OCC(F)(F)F)ccnc1CS(=O)c1nc2ccccc2[nH]1 (stereo unspecified) 4.38%
CC(C)OC(=O)c1ccc(NC(=O)c2cncc(Br)c2)cc1 5.62%
COC(=O)c1sccc1NC(=O)Nc1ccccc1F 2.18%
CCN(CC)c1ccc([C@H]2[C@@H]3CCCC[C@]3(O)CCN2CC(=O)NCc2ccco2)cc1 -0.728%
O=C(O)COc1ccc2occ(C(=O)c3ccccc3)c2c1 -5.05%
CN(C)c1ccc(Nc2c3c4c(cccc4n(C)c2=O)C(=O)c2ccccc2-3)cc1 6.14%
COc1cc(-c2cccs2)cc(=O)c2c(C)oc(C)c12 -8.26%
O=Cc1ccccc1Oc1ccccc1 -0.351%
CCc1cc2c(=O)c(-c3nc(C)cs3)coc2cc1OC(C)C(=O)NCCO (stereo unspecified) -1.46%
O=C(O)c1ccc(C(=O)C(=O)c2ccccc2)cc1 13.8%
COc1ccc(CCN2CCC(Nc3nc4ccccc4n3Cc3ccc(F)cc3)CC2)cc1 18.5%
O=C1CC[C@@H](CN(Cc2ccccc2)Cc2cn[nH]c2-c2cc3ccccc3o2)N1 -2.73%
Cc1ncc([N+](=O)[O-])n1CCO -7.01%
O=C(COc1ccc(F)cc1)OCCN1CCOCC1 12.9%
CCN(CC)CC#CCOC(=O)C(O)(c1ccccc1)C1CCCCC1 (stereo unspecified) 3.43%
CCN1CCN(C(=S)c2ccc(OC)cc2)CC1 -1.26%
O=C1Cc2ccccc2C(c2ccccc2)N1 (stereo unspecified) 5.96%
O=C(/C=C/c1ccccc1)c1ccccc1 -23.7%
Cn1cc(CN2CCN(CCO)CC2)c(-c2ccc(Oc3ccccc3)cc2)n1 5.85%
Cc1nc(NC(CC(C)C)C(=O)O)c2nc(C)oc2n1 (stereo unspecified) 3.07%
COc1cc2nc(N3CCN(C(=O)c4ccco4)CC3)nc(N)c2cc1OC -11.3%

Arranged by count of non-hydrogen atoms (rising): part of the list above
Growth inhibition, inactive:
COC(=O)c1sccc1NC(=O)Nc1ccccc1F 2.18%
COc1ccc(/C=C\c2nc(=O)c3ccccc3o2)cc1 6.65%
O=C1CC[C@@H](CN(Cc2ccccc2)Cc2cn[nH]c2-c2cc3ccccc3o2)N1 -2.73%

Molecules from the list above that have a thiophene ring, fused or not (4):
Growth inhibition, inactive:
O=C(CCC1CCCN(C(=O)c2ccsc2)C1)NCc1ccc(F)c(F)c1 (stereo unspecified) -8.05%
CN(C)CCN(Cc1cccs1)c1ccccn1 3.92%
COC(=O)c1sccc1NC(=O)Nc1ccccc1F 2.18%
COc1cc(-c2cccs2)cc(=O)c2c(C)oc(C)c12 -8.26%
